Assay results published in US12252531B2, “Methods of screening for high-affinity, isoform-selective TGFβ1 inhibitors” (Scholar Rock, Inc., priority 2018, dated 2025).
Some entries share one result that the patent states for a list of compounds.

The molecules below were run against hLTBP1-proTGFβ1, hLTBP3-proTGFβ1, hGARP-proTGFβ1 and hLRRC33-proTGFβ1 (assay: MSD-SET, binding profile and bias across the four human LLCs). Settings: solution equilibrium titration, each of hLTBP1-, read-out: KD for each of the four human complexes (Category 1 criterion).
Description: Solution Equilibrium Titration (SET): The SET is an assay whereby binding between two molecules (such as an antigen and an antibody that binds the antigen) can be measured at equilibrium in a solution. For example, Meso-Scale Discovery (“MSD”)-based SET, or MSD-SET, is a useful mode of determining dissociation constants for particularly high-affinity protein-protein interactions at equilibrium, such as picomolar-affinity antibodies binding to their antigens (see, for example: Ducata et al. (2015) J Biomolecular Screening 20(10): 1256-1267). The SET-based assays are particularly useful for determining KD values of antibodies with sub-nanomolar (e.g., picomolar) affinities.
Solution equilibrium titration (“SET”) is an assay whereby binding between two molecules (such as an antigen and an antibody that binds the antigen) can be measured at equilibrium in a solution. For example, Meso-Scale Discovery (“MSD”)-based SET, or MSD-SET, is a useful mode of determining dissociation constants for particularly high-affinity protein-protein interactions at equilibrium (see, for example: Ducata et al. (2015) J Biomolecular Screening 20(10): 1256-1267). The SET-based assays are particularly useful for determining KD values of antibodies with sub-nanomolar (e.g., picomolar) affinities.
For solution equilibrium titration-based binding assays, protein complexes that comprise one of the presenting molecules such as those shown above may be employed as antigen (presenting molecule-TGFβ1 complex, or an LLC). Test antibodies are allowed to form antigen-antibody complex in solution. Antigen-antibody reaction mixtures are incubated to allow an equilibrium to be reached; the amount of the antigen-antibody complex present in the assay reactions can be measured by suitable means well known in the art. As compared to BLI-based assays, SET-based assays are less affected by on/off rates of the antigen-antibody complex, allowing sensitive detection of very high affinity interactions.

Row | Molecule | Kd [nM]
1 | Ab24: proTGFβ1 antibody; VH SEQ ID NO: 132, VL SEQ ID NO: 15 (antibody, V domains shown) VH: EVQLVESGGGLVQPGRSLRLSCAASGFTFSSFAMYWVRQAPGKGLEWVSYISPDASTIYYADSVKGRFTISRDNAKNSLYLQMNSLRAEDTAVYYCARGVLDYGDMLDPWGQGTLVTVSS VL: DIQMTQSPSSLSASVGDRVTITCQASQDITNYLNWYQQKPGKAPKLLIYDASNLETGVPSRFSGSGSGTDFTFTISSLQPEDIATYYCQQADNHPPWTFGGGTKVEIK | ≤ 0.2
2 | Ab26: proTGFβ1 antibody; VH SEQ ID NO: 134, VL SEQ ID NO: 15 (antibody, V domains shown) VH: EVQLVESGGGLVQPGGSLRLSCAASGFTFSSFSMDWVRQAPGKGLEWVSYISPDASTIYYADSVKGRFTISRDNAKNTLYLQMNSLRAEDTAVYYCARGVLDYGDMLDPWGQGTLVTVSS VL: DIQMTQSPSSLSASVGDRVTITCQASQDITNYLNWYQQKPGKAPKLLIYDASNLETGVPSRFSGSGSGTDFTFTISSLQPEDIATYYCQQADNHPPWTFGGGTKVEIK | ≤ 0.2
3 | Ab29: proTGFβ1 antibody; VH SEQ ID NO: 137, VL SEQ ID NO: 15 (antibody, V domains shown) VH: EVQLVESGGGLVQPGRSLRLSCAASGFTFSSFAMNWVRQAPGKGLEWVSYISPDASTIYYAGSVKGRFTISRDNAKNSLYLQMNSLRAEDTAVYYCVRAVLDYGDMLDPWGQGTLVTVSS VL: DIQMTQSPSSLSASVGDRVTITCQASQDITNYLNWYQQKPGKAPKLLIYDASNLETGVPSRFSGSGSGTDFTFTISSLQPEDIATYYCQQADNHPPWTFGGGTKVEIK | ≤ 0.2
4 | Ab30: proTGFβ1 antibody; VH SEQ ID NO: 138, VL SEQ ID NO: 15 (antibody, V domains shown) VH: EVQLVESGGGLVQPGGSLRLSCAASGFTFSSFSMDWVRQAPGKGLEWVSYISPDASTIYYADSVKGRFTISRDNAKNSLYLQMNSLRAEDTAVYYCARGTLDYGDMLDPWGQGTLVTVSS VL: DIQMTQSPSSLSASVGDRVTITCQASQDITNYLNWYQQKPGKAPKLLIYDASNLETGVPSRFSGSGSGTDFTFTISSLQPEDIATYYCQQADNHPPWTFGGGTKVEIK | ≤ 0.2
5 | Ab31: proTGFβ1 antibody; VH SEQ ID NO: 139, VL SEQ ID NO: 15 (antibody, V domains shown) VH: EVQLVESGGGLVQPGGSLRLSCAASGFTFSSFSMDWVRQAPGKGLEWVSYISPDASTIYYADSVKGRFTISRDNAKNTLYLQMNSLRAEDTAVYYCARAVLDYGDMLDPWGQGTLVTVSS VL: DIQMTQSPSSLSASVGDRVTITCQASQDITNYLNWYQQKPGKAPKLLIYDASNLETGVPSRFSGSGSGTDFTFTISSLQPEDIATYYCQQADNHPPWTFGGGTKVEIK | ≤ 0.2
6 | Ab32: proTGFβ1 antibody; VH SEQ ID NO: 140, VL SEQ ID NO: 15 (antibody, V domains shown) VH: EVQLVESGGGLVQPGGSLRLSCAASGFTFSSFSMNWVRQAPGKGLEWVSYISPSADTIYYADSVKGRFTISRDNAKNTLYLQMNSLRAEDTAVYYCARGVWDMGDMLDPWGQGTLVTVSS VL: DIQMTQSPSSLSASVGDRVTITCQASQDITNYLNWYQQKPGKAPKLLIYDASNLETGVPSRFSGSGSGTDFTFTISSLQPEDIATYYCQQADNHPPWTFGGGTKVEIK | ≤ 0.2
7 | Ab33: proTGFβ1 antibody; VH SEQ ID NO: 141, VL SEQ ID NO: 15 (antibody, V domains shown) VH: EVQLVESGGGLVQPGGSLRLSCAASGFTFSSFSMNWVRQAPGKGLEWVSYISPSADTIYYADSVKGRFTISRDNAKNTLYLQMNSLRAEDTAVYYCAHGVLDYGDMLDPWGQGTLVTVSS VL: DIQMTQSPSSLSASVGDRVTITCQASQDITNYLNWYQQKPGKAPKLLIYDASNLETGVPSRFSGSGSGTDFTFTISSLQPEDIATYYCQQADNHPPWTFGGGTKVEIK | ≤ 0.2
